Assay results reported in patent US20160031955A1 (INSERM INSTITUT NATIONAL DE LA SANT ET DE LA RECHERCHE M …, published 2016).
Results are given in words; binding and its absence hold for the method and conditions named. In cells and extracts the contact can be indirect. Some entries that bind do so weakly or less than the wild type.

Molecular target: GST-tagged AIF (GST-AIF) immobilized on glutathione-Sepharose beads (human) [GST: P08515]
Experiment: competitive GST pull-down, GST-AIF preincubated with peptide before His-MIA40

binding: binds
B1: synthetic peptide MIA40 1-27 (peptide)
peptide: MSYCRQEGKDRIIFVTKEDHETPSSAE
